Reference: PubChem BioAssay AID743454 (Peter MacCallum Cancer Centre, 2014)
The deposit covers about 18,000 reagents; below is a part drawn at random. 450 of them (2.5%) were called active. 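Single biological run; no consistent viability z cut-off exists, so the class columns, not z-scores, define the calls.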

- Purpose: 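Search for knock-downs that restore vorinostat killing in resistant colon cancer cells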 (primary screen)
- Cells: human HCT116-VR colon cancer cells, selected for vorinostat resistance
- Reagents: siRNA pool against human genes, 40 nM siRNA pool
- Time to read-out: vorinostat for 24 h, read-out about 72 h after transfection
- Treatment: vorinostat at 2.5 µM final
- Read-out: 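Two measures, CellTiter-Fluor viability and luminescent caspase 3/7 activity, each as fold change against same-plate mock wells, mean of duplicates, then screen-wide robust z-score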
- Scale: viability robust z-score: higher = more viable cells than screen typical; caspase robust z-score: higher = more caspase 3/7 activity than screen typical
- Rule for the call: 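a knock-down is a hit when classed RV1 or RV2 for lowered viability, or CA1 or CA2 for caspase activation; those lethal without drug were dropped; hits were retested singly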

FOXS1 → viability hit class: no change; caspase hit class: no change; viability robust z-score: -0.85; caspase robust z-score: 1.85; outcome: inactive
PTPN14 → viability hit class: no change; caspase hit class: no change; viability robust z-score: 1.42; caspase robust z-score: 0.15; outcome: inactive
ZFP1 → viability hit class: no change; caspase hit class: no change; viability robust z-score: 0.11; caspase robust z-score: -1.27; outcome: inactive
ERGIC2 → viability hit class: no change; caspase hit class: no change; viability robust z-score: 0.85; caspase robust z-score: 0.81; outcome: inactive
SLC35G3 → viability hit class: no change; caspase hit class: no change; viability robust z-score: -1.31; caspase robust z-score: -0.9; outcome: inactive
SYNJ2 → viability hit class: no change; caspase hit class: no change; viability robust z-score: -0.18; caspase robust z-score: 0.82; outcome: inactive
MC4R → viability hit class: no change; caspase hit class: no change; viability robust z-score: 1.46; caspase robust z-score: -0.22; outcome: inactive
ZFPM2 → viability hit class: no change; caspase hit class: no change; viability robust z-score: -0.32; caspase robust z-score: 0.81; outcome: inactive
H3-4 → viability hit class: no change; caspase hit class: no change; viability robust z-score: -0.44; caspase robust z-score: -0.42; outcome: inactive
SUV39H1 → viability hit class: no change; caspase hit class: no change; viability robust z-score: -0.38; caspase robust z-score: -0.45; outcome: inactive
OR4F3 → viability hit class: no change; caspase hit class: no change; viability robust z-score: 0.3; caspase robust z-score: -0.28; outcome: inactive
MON2 → viability hit class: no change; caspase hit class: no change; viability robust z-score: 0.77; caspase robust z-score: 0.66; outcome: inactive
CUTA → viability hit class: no change; caspase hit class: no change; viability robust z-score: 0.54; caspase robust z-score: -0.56; outcome: inactive
TRIM38 → viability hit class: no change; caspase hit class: no change; viability robust z-score: 1.01; caspase robust z-score: 0.12; outcome: inactive

The list goes on (3 carried over from the part before).
MON2 → viability hit class: no change; caspase hit class: no change; viability robust z-score: 0.77; caspase robust z-score: 0.66; outcome: inactive
CUTA → viability hit class: no change; caspase hit class: no change; viability robust z-score: 0.54; caspase robust z-score: -0.56; outcome: inactive
TRIM38 → viability hit class: no change; caspase hit class: no change; viability robust z-score: 1.01; caspase robust z-score: 0.12; outcome: inactive
DPP3 → viability hit class: no change; caspase hit class: no change; viability robust z-score: -0.21; caspase robust z-score: 1.26; outcome: inactive
BDKRB2 → viability hit class: no change; caspase hit class: no change; viability robust z-score: -0.62; caspase robust z-score: 0.32; outcome: inactive
ZDHHC13 → viability hit class: no change; caspase hit class: no change; viability robust z-score: -0.25; caspase robust z-score: -1.06; outcome: inactive
PAGE2B → viability hit class: no change; caspase hit class: no change; viability robust z-score: -0.22; caspase robust z-score: -0.48; outcome: inactive
BOLL → viability hit class: no change; caspase hit class: no change; viability robust z-score: 0.46; caspase robust z-score: -1.42; outcome: inactive
VPS50 → viability hit class: no change; caspase hit class: no change; viability robust z-score: -0.29; caspase robust z-score: -0.69; outcome: inactive
GALT → viability hit class: no change; caspase hit class: no change; viability robust z-score: -1.39; caspase robust z-score: -0.11; outcome: inactive
